Assay results: patent US20060148715A1, “Structural requirements for STAT3 binding and recruitment to phosphotyrosine ligands” (BAYLOR COLLEGE OF MEDICINE, priority 2004, published 2006)
These are yes or no findings as the source states them, for the method shown. For some assays here: In cells and extracts the contact can be indirect. Some results given as binding are weak or reduced against the parent protein; the word gives no strength.

Amino acid sequences for entries named in this document (tags omitted). A change or cut given only in a name is not applied to a line headed by its entry. Chains listed by the source or under a name are the forms on record and can include a tag or linker.
Stat3-3M+C687A (P40763, form named): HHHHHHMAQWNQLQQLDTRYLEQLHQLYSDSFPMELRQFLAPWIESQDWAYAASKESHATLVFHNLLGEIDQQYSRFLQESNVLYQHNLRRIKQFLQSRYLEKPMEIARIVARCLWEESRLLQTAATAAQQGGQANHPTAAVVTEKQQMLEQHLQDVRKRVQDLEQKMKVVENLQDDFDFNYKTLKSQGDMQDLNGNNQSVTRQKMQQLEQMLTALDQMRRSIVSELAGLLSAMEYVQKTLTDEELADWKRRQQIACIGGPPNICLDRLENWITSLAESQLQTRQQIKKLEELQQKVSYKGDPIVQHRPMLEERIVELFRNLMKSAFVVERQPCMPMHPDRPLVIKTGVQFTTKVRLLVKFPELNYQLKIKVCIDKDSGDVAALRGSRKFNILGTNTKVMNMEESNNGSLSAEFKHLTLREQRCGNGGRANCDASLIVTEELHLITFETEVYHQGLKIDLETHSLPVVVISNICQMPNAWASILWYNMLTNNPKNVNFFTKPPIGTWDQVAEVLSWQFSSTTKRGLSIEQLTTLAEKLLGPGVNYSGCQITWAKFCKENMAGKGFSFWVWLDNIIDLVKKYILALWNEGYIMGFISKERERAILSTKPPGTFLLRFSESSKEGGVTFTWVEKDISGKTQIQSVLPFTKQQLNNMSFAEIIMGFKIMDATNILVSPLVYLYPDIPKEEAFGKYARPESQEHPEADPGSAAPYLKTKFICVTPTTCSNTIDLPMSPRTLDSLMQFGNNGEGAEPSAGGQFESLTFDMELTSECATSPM
Stat3-3M+K591L (P40763, form named): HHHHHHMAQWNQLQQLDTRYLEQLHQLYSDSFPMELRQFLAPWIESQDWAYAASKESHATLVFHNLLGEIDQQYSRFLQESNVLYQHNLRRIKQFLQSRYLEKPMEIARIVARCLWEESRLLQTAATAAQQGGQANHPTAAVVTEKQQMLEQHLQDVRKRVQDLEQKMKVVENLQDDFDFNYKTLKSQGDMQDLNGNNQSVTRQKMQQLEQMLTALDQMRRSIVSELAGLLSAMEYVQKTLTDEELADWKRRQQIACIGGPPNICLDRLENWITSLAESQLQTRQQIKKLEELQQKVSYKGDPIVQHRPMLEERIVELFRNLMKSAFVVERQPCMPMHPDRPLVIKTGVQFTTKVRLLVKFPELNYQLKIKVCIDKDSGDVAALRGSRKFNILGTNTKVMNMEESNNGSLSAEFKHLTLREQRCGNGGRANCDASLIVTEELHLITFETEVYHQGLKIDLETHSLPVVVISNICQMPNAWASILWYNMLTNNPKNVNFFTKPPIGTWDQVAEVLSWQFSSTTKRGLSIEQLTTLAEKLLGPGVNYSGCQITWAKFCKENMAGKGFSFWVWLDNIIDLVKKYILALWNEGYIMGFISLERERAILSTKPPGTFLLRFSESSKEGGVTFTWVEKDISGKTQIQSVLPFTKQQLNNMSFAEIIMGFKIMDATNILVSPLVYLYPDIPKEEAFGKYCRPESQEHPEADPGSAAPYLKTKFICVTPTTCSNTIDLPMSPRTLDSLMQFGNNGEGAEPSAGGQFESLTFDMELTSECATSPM

Key:
[1] = molecular target: T1, Y1068 non-phosphorylated dodecapeptide (EGFR); assay: peptide pull-down: biotinylated peptide on NeutrAvidin agarose, purified His-tagged Stat3 protein added, bound protein immunoblotted with Stat3 mAb
T1 sequence (peptide, N-terminal biotin (d-Biotin-LC)): LPVPEYINQSVP

[2] = molecular target: T1, Y1068 non-phosphorylated dodecapeptide (EGFR); assay: mirror resonance biosensor: biotinylated peptide on NeutrAvidin-coated cuvette, Stat3 protein in solution, association followed for about 10 min

Substance | binding [1] | binding [2]
Stat3-3M+C687A (from UniProt P40763 1-770) | binds | 
Stat3-3M+K591L (from UniProt P40763 1-770) |  | no binding (tested: 600 nM)
